The record followed here is PubChem BioAssay AID1487 (National Center for Advancing Translational Sciences (NCATS), 2009).

The nature of the assay: qHTS Assay for Modulators of Lamin A Splicing. The following applies: HeLa LMNA splicing GFP/RFP minigene ratio, 48 h. An outline of the steps: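 S3 HeLa stable clones carrying a lamin A-EGFP splicing minigene plus DsRed2 were seeded at 600 cells/well in Opti-MEM with 2% FBS, pin-dosed and incubated 48 h at 37°C. Acumen cytometry (488 nm) gave the GFP/RFP total-intensity ratio.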

Where [1] appears, read: measured here: RFP viability control channel.
[2] abbreviates: measured here: GFP splicing reporter channel.

The list shows a part of the results. These are further read-outs of the screen, such as a control signal, another cell line or another target. No call is given for them. The list favours compounds with an active or inconclusive main result. Potencies come from curve fits of mixed quality, noted in brackets.

Broadly, the AC50 is the concentration at which the activity in the assay is half-maximal. Take `Cc1cc(SCCOc2ccc(Br)cc2)nc(N)n1`: the AC50 under setting [1] was 20 µM [rising, single point].
On to `O=c1c2c(nc3nc(NCc4cccc(Cl)c4)[nH]n13)CCC2`, for which the AC50 under setting [2] is 2.82 µM [falling, partial curve, poor fit].
Take `Cc1ccccc1OCCNc1cc(N2CCN(CCO)CC2)ccc1[N+](=O)[O-]`: under setting [1], the AC50 is 0.0501 µM [rising, partial curve, poor fit].
As for `COc1ccccc1-n1cc([C@@H]2C[C@H]3CN(c4ccccc4)C(=O)[C@]34CCCN24)cn1`, the AC50 under setting [1] is 0.794 µM [rising, partial curve, poor fit].
For the molecule `CCOc1ccc(/C=C2\C(=O)c3ccccc3OC2c2ccccc2)cc1` (stereo not drawn), the concentration at half-maximal activity (AC50) by setting is: under setting [2], 35.5 µM [falling, single point]; under setting [1], 35.5 µM [falling, single point].
With `CSc1nc(Nc2ccc(F)cc2)cc(-c2ccccc2)n1`, the AC50 is, setting by setting: under setting [2], 35.5 µM [falling, single point]; under setting [1], 35.5 µM [falling, single point].
For the molecule `CCc1ccccc1NC(=O)Cn1cc(S(=O)(=O)N2CCCC2)c(S(=O)(=O)N2CCCC2)c1`, under setting [2], the AC50 is 0.316 µM [falling, full curve, poor fit].
Take `O=C(O)c1ccc(N=C2SCC(=O)N2Cc2ccccc2)cc1`: the concentration at half-maximal activity (AC50) under setting [2] is 3.16 µM [rising, single point].
Regarding `CC(C)(C)c1nnc2sc(SCC(=O)N3CCCc4ccccc43)nn2c1=O`, the AC50 under setting [2] was 8.91 µM [rising, single point].
On to `C/C(=C\C(=O)c1ccc(Br)cc1)NCc1ccc(C)cc1`, for which the half-maximal activity concentration (AC50) by setting is: under setting [2], 11.2 µM [rising, single point]; under setting [1], 14.1 µM [rising, single point].
For `COc1ccc(OCC(=O)Nn2c(-c3cccc(OC)c3)nc3ccccc3c2=O)cc1`, under setting [2], the AC50 was 11.2 µM [rising, partial curve].
Regarding `COc1ccc(F)cc1S(=O)(=O)Nc1cccc(C(=O)O)c1`, the AC50 under setting [2] is 6.31 µM [falling, single point] and the half-maximal activity concentration (AC50) under setting [1] is 0.794 µM [falling, partial curve].
`CC(O)(CS(=O)(=O)Cc1cccc(C(F)(F)F)c1)C(=O)Nc1cccc(C(F)(F)F)c1` (stereo not drawn): the AC50 under setting [1] is 12.6 µM [falling, partial curve].
As for `Cc1nc2[nH]c(=S)n(C)c(=O)c2nc1C`, the AC50 under setting [2] is 4.47 µM [rising, single point].
`CCC(=O)C1=C(c2ccc(F)cc2)N(C(=O)CC)n2cnnc2S1`: the AC50 under setting [1] is 1.12 µM [rising, partial curve].
`CCN(CC)CCCN1C(=O)C(=O)/C(=C(/O)c2ccccc2)C1c1cc(OC)ccc1OC` (stereo not drawn): the AC50 under setting [2] is 0.0447 µM [rising, full curve, poor fit] and the AC50 under setting [1] is 0.0501 µM [rising, full curve, poor fit].
For the molecule `CCc1ccccc1NC(=O)CN(c1ccccc1)S(=O)(=O)c1ccsc1C(=O)OC`, the AC50 is 0.00316 µM [falling, full curve, poor fit] under setting [2] and 0.00282 µM [falling, full curve, poor fit] under setting [1].
For `O=C(NCc1ccc2c(c1)OCO2)c1ccc2c(c1)N(Cc1ccccc1F)C(=O)c1ccccc1S2`, the AC50 under setting [2] was 0.141 µM [rising, full curve, poor fit].
Same read-out and setting: the figure for `O=C1NCC(COCC2CC=CCC2)O1` (stereo not drawn) is 14.1 µM [falling, single point].
For the molecule `Fc1cccc(Cl)c1Cn1nnc2c(NCc3ccncc3)ncnc21`, the concentration at half-maximal activity (AC50) under setting [1] is 0.316 µM [falling, full curve, poor fit].
As for `Cc1ccc(NC2=C(Cl)C(=O)OC2OC(=O)c2ccccc2)c(C)c1` (stereo not drawn), under setting [2], the AC50 was 6.31 µM [rising, single point].
Turning to `CCOC(=O)c1c(-n2cccc2)sc2c1CCCC2=O`, the concentration at half-maximal activity (AC50) under setting [1] is 35.5 µM [rising, single point].
Same read-out and setting: the figure for `COc1ccc2c(Cl)c(C(=O)N/N=C/c3c(C)[nH]c4ccccc34)sc2c1` is 35.5 µM [rising, single point].
The same measure, in the same setting: the same measure for `COc1cc(C(=O)OCC(=O)Nc2c(F)cccc2F)cc(OC)c1C`: 0.00447 µM [rising, full curve, poor fit]; for `C=CCOC(=O)C1=C(C)NC(SCC(=O)NC(=O)OCC)=C(C#N)C1c1cccnc1` (stereo not drawn): 7.08 µM [rising, partial curve, poor fit]; for `CCn1c(SCc2nc3ccccc3c(=O)[nH]2)nnc1C(C)NC(=O)c1ccccc1F` (stereo not drawn): 35.5 µM [falling, single point].
Consider `C/C(=N\NC(=O)c1cc(C)nc2ccccc12)c1ccco1`, for which, under setting [1], the concentration at half-maximal activity (AC50) was 35.5 µM [rising, single point].
Consider `O=C(CSc1n[nH]c(-c2ccc(S(=O)(=O)NC3CCCCC3)cc2)n1)N1CCCC1`, for which the AC50 under setting [1] was 14.1 µM [rising, partial curve].
`COc1ccc(COc2cc(-c3cccc(OC)c3)nc3ccc(NC(=O)c4ccc(N(C)C)cc4)cc23)cc1`: the half-maximal activity concentration (AC50) under setting [1] is 5.01 µM [rising, full curve].
Still for that read-out and setting: the same measure for `COc1ccc(OCC(=O)O/N=C(\N)c2ccc(OC)c(OC)c2)cc1`: 22.4 µM [rising, partial curve, poor fit].
As for `CC(Oc1ccccc1)C(=O)Nc1ccc(S(=O)(=O)NCC2CCCO2)cc1` (stereo not drawn), the AC50 under setting [1] was 12.6 µM [rising, partial curve, poor fit].
Consider `O=C(/C=C/c1ccc2c(c1)OCO2)NCc1ccc(F)cc1`, for which, under setting [2], the AC50 was 0.794 µM [rising, full curve, poor fit].
On to `COc1ccccc1-n1c(C)c2c(OC)cccc(=O)c2c1C`, for which the AC50 under setting [2] was 17.8 µM [rising, single point].
As to `CC(=O)c1cc(F)c(N2CCN(C(=O)COc3ccccc3F)CC2)cc1C`, the AC50 under setting [1] was 25.1 µM [rising, single point].
Consider `CCCCc1ccc(NS(=O)(=O)c2cccs2)cc1`, for which the AC50 under setting [1] is 12.6 µM [rising, partial curve, poor fit].
Turning to `COc1cccc(CN2C(=O)c3ccccc3Sc3ccc(C(=O)OCc4ccco4)cc32)c1`, the half-maximal activity concentration (AC50) under setting [2] is 0.794 µM [rising, full curve, poor fit].
Consider `CC1=C(C(=O)Nc2ccc([N+](=O)[O-])cc2)C(c2cccc(C(F)(F)F)c2)NC(=S)N1c1ccccc1` (stereo not drawn), for which the half-maximal activity concentration (AC50) under setting [2] was 35.5 µM [falling, single point] and the half-maximal activity concentration (AC50) under setting [1] was 15.8 µM [falling, single point].
In the case of `CCS(=O)(=O)c1nc(S(=O)(=O)c2ccc(Cl)cc2)c(N2CCc3ccccc3C2)s1`, the AC50 under setting [1] was 22.4 µM [rising, single point].
In the case of `CC(NC(=O)c1ccc(OC2CCN(Cc3ccccn3)CC2)cc1)c1ccccc1` (stereo not drawn), the AC50 is 35.5 µM [falling, single point] under setting [2] and 14.1 µM [falling, single point] under setting [1].
In the case of `COc1ccc(N2C(=O)CC(Sc3ccccc3C(=O)O)C2=O)c([N+](=O)[O-])c1` (stereo not drawn), the AC50 under setting [1] was 11.2 µM [falling, partial curve].
The same measure, in the same setting: the figure for `COc1cccc(CSc2nc3n(n2)C(c2cccs2)C(C(=O)Nc2ccccc2C)=C(C)N3)c1` (stereo not drawn) is 20 µM [falling, single point].
With `CCOc1cc(C(=S)N2CCOCC2)ccc1OS(=O)(=O)c1ccccc1`, the AC50 reads like this: under setting [2], 12.6 µM [rising, partial curve, poor fit]; under setting [1], 15.8 µM [rising, single point].
For the molecule `O=C(COc1ccc(Cl)cc1)Nc1ncc([N+](=O)[O-])s1`, the concentration at half-maximal activity (AC50) by setting is: under setting [2], 5.62 µM [falling, partial curve]; under setting [1], 17.8 µM [rising, single point].
`Cn1c(=O)oc2cc(S(=O)(=O)NCc3ccncc3)ccc21`: the half-maximal activity concentration (AC50) reads like this: under setting [2], 3.16 µM [rising, full curve]; under setting [1], 6.31 µM [rising, partial curve].
Consider `O=C(Oc1ccccc1C(=O)Oc1ccccc1)c1cccnc1`, for which the half-maximal activity concentration (AC50) under setting [1] was 35.5 µM [rising, partial curve].
As to `CCOc1cc(CNCCSc2nnnn2C)cc(Br)c1OCc1ccc(F)cc1`, the concentration at half-maximal activity (AC50) was 15.8 µM [rising, single point] under setting [2] and 35.5 µM [rising, single point] under setting [1].
As to `CCSc1nc2ccccc2n1C(=O)/C=C\c1ccc(OC)c(OC)c1`, the concentration at half-maximal activity (AC50) runs as follows: under setting [2], 3.55 µM [falling, full curve]; under setting [1], 3.16 µM [falling, full curve].
On to `CCSc1nnc(NC(=O)c2ccccn2)s1`, for which the AC50 is 14.1 µM [rising, single point] under setting [2] and 4.47 µM [rising, full curve] under setting [1].
For the molecule `O=C(Cc1ccc(F)cc1)NCC1CCCO1` (stereo not drawn), the AC50 under setting [1] is 14.1 µM [falling, partial curve].
With `CCOc1ccc(S(=O)(=O)N(C)c2ccc(OCC(=O)Nc3nc4ccccc4s3)cc2)cc1`, the AC50 by setting is: under setting [2], 5.01 µM [rising, partial curve]; under setting [1], 3.16 µM [rising, full curve].
Consider `COc1cc(SC)ccc1C(=O)NCCOc1ccc(Cl)cc1`, for which the AC50 under setting [2] is 22.4 µM [rising, single point] and the AC50 under setting [1] is 35.5 µM [rising, single point].
As for `Nc1sc2c(c1C(=O)c1ccccc1)CCCC2`, the half-maximal activity concentration (AC50) is, setting by setting: under setting [2], 35.5 µM [rising, single point]; under setting [1], 35.5 µM [rising, single point].
Take `COC(=O)c1c(-c2cc(OC)c(OC)c(OC)c2)c2ccnc(OCc3ncccn3)c2c(=O)n1Cc1ccnc(C)c1`: the half-maximal activity concentration (AC50) under setting [2] was 0.0708 µM [falling, full curve, poor fit].
As for `CN1CCN(CC(=O)Nc2ccc(Oc3ccccc3)cc2)CC1`, under setting [1], the AC50 was 25.1 µM [rising, single point].
For `O=C(c1ccc(S(=O)(=O)N2CCCCC2)cc1)N1CCN(CCN2C(=O)c3cccc4cccc(c34)C2=O)CC1`, the AC50 under setting [2] was 3.98 µM [falling, partial curve, poor fit].
The same measure, in the same setting: the figure for `CS(=O)(=O)N(CC(=O)N1CCN(Cc2ccc3c(c2)OCO3)CC1)C1CCCCC1` is 0.0178 µM [rising, full curve, poor fit].
